Measured values as given in article PMC8565353.

B1: U5 snRNP 52K protein (CD2BP2) (protein, UniProt O95400 1-341)
chain: MPKRKVTFQGVGDEEDEDEIIVPKKKLVDPVAGSGGPGSRFKGKHSLDSDEEEDDDDGGSSKYDILASEDVEGQEAATLPSEGGVRITPFNLQEEMEEGHFDADGNYFLNRDAQIRDSWLDNIDWVKIRERPPGQRQASDSEEEDSLGQTSMSAQALLEGLLELLLPRETVAGALRRLGARGGGKGRKGPGQPSSPQRLDRLSGLADQMVARGNLGVYQETRERLAMRLKGLGCQTLGPHNPTPPPSLDMFAEELAEEELETPTPTQRGEAESRGDGLVDVMWEYKWENTGDAELYGPFTSAQMQTWVSEGYFPDGVYCRKLDPPGGQFYNSKRIDFDLYT
B2: CWF19L2 (protein, UniProt Q2TBE0 1-894)
chain: MATSMAAASGRFESAKSIEERKEQTRNARAEVLRQAKANFEKEERRKELKRLRGEDTWMLPDVNERIEQFSQEHSVKKKKKKDKHSKKAKKEKKKKSKKQKYEKNNESSDSSSSSEDEWVEAVPSQTPDKEKAWKVKDEKSGKDDTQIIKRDEWMTVDFMSVKTVSSSSLKAEKETMRKIEQEKNQALEQSKLMERELNPYWKDGGTGLPPEDCSVSSITKVSVVEDGGLSWLRKSYLRMKEQAEKQSRNFEDIVAERYGSMEIFQSKLEDAEKAASTKEDYRRERWRKPTYSDKAQNCQESRESDLVKYGNSSRDRYATTDTAKNSNNEKFIGDEKDKRPGSLETCRRESNPRQNQEFSFGNLRAKFLRPSDDEELSFHSKGRKFEPLSSSSALVAQGSLCSGFRKPTKNSEERLTSWSRSDGRGDKKHSNQKPSETSTDEHQHVPEDPREKSQDEVLRDDPPKKEHLRDTKSTFAGSPERESIHILSVDEKNKLGAKIIKAEMMGNMELAEQLKVQLEKANKFKETITQIPKKSGVENEDQQEVILVRTDQSGRVWPVNTPGKSLESQGGRRKRQMVSTHEERERVRYFHDDDNLSLNDLVKNEKMGTAENQNKLFMRMASKFMGKTDGDYYTLDDMFVSKAAERERLGEEEENQRKKAIAEHRSLAAQMEKCLYCFDSSQFPKHLIVAIGVKVYLCLPNVRSLTEGHCLIVPLQHHRAATLLDEDIWEEIQMFRKSLVKMFEDKGLDCIFLETNMSMKKQYHMVYECIPLPKEVGDMAPIYFKKAIMESDEEWSMNKKLIDLSSKDIRKSVPRGLPYFSVDFGLHGGFAHVIEDQHKFPHYFGKEIIGGMLDIEPRLWRKGIRESFEDQRKKALQFAQWWKPYDFTKSKNY
B3: YJU2 (CCDC94) (protein, UniProt Q9BW85 1-323)
chain: MSERKVLNKYYPPDFDPSKIPKLKLPKDRQYVVRLMAPFNMRCKTCGEYIYKGKKFNARKETVQNEVYLGLPIFRFYIKCTRCLAEITFKTDPENTDYTMEHGATRNFQAEKLLEEEEKRVQKEREDEELNNPMKVLENRTKDSKLEMEVLENLQELKDLNQRQAHVDFEAMLRQHRLSEEERRRQQQEEDEQETAALLEEARKRRLLEDSDSEDEAAPSPLQPALRPNPTAILDEAPKPKRKVEVWEQSVGSLGSRPPLSRLVVVKKAKADPDCSNGQPQAAPTPGAPQNRKEANPTPLTPGASSLSQLGAYLDSDDSNGSN
B4: CRNKL1 (protein, UniProt Q9BZJ0 1-848)
chain: MTATVENLTFQKDTLGNAVDKNTSRLELRSYSLAGRHGSTEPLVLAWSSQFRRLTWGCALDALHRSPCVAASQHGVTHLIRSSRTPHSTRCRKEDAQPGHHGNGAASVTAQARGQRSVLQVPLPVPRSCLFSESFVVSVSSQSRFLASVPGTGVQRSTAADMAASTAAGKQRIPKVAKVKNKAPAEVQITAEQLLREAKERELELLPPPPQQKITDEEELNDYKLRKRKTFEDNIRKNRTVISNWIKYAQWEESLKEIQRARSIYERALDVDYRNITLWLKYAEMEMKNRQVNHARNIWDRAITTLPRVNQFWYKYTYMEEMLGNVAGARQVFERWMEWQPEEQAWHSYINFELRYKEVDRARTIYERFVLVHPDVKNWIKYARFEEKHAYFAHARKVYERAVEFFGDEHMDEHLYVAFAKFEENQKEFERVRVIYKYALDRISKQDAQELFKNYTIFEKKFGDRRGIEDIIVSKRRFQYEEEVKANPHNYDAWFDYLRLVESDAEAEAVREVYERAIANVPPIQEKRHWKRYIYLWINYALYEELEAKDPERTRQVYQASLELIPHKKFTFAKMWILYAQFEIRQKNLSLARRALGTSIGKCPKNKLFKVYIELELQLREFDRCRKLYEKFLEFGPENCTSWIKFAELETILGDIDRARAIYELAISQPRLDMPEVLWKSYIDFEIEQEETERTRNLYRRLLQRTQHVKVWISFAQFELSSGKEGSLTKCRQIYEEANKTMRNCEEKEERLMLLESWRSFEEEFGTASDKERVDKLMPEKVKKRRKVQTDDGSDAGWEEYFDYIFPEDAANQPNLKLLAMAKLWKKQQQEKEDAEHHPDEDVDESES
B5: DHX16 helicase (enzyme, UniProt O60231 1-1041)
chain: MATPAGLERWVQDELHSVLGLSERHVAQFLIGTAQRCTSAEEFVQRLRDTDTLDLSGPARDFALRLWNKVPRKAVVEKPARAAEREARALLEKNRSYRLLEDSEESSEETVSRAGSSLQKKRKKRKHLRKKREEEEEEEASEKGKKKTGGSKQQTEKPESEDEWERTERERLQDLEERDAFAERVRQRDKDRTRNVLERSDKKAYEEAQKRLKMAEEDRKAMVPELRKKSRREYLAKREREKLEDLEAELADEEFLFGDVELSRHERQELKYKRRVRDLAREYRAAGEQEKLEATNRYHMPKETRGQPARAVDLVEEESGAPGEEQRRWEEARLGAASLKFGARDAASQEPKYQLVLEEEETIEFVRATQLQGDEEPSAPPTSTQAQQKESIQAVRRSLPVFPFREELLAAIANHQVLIIEGETGSGKTTQIPQYLFEEGYTNKGMKIACTQPRRVAAMSVAARVAREMGVKLGNEVGYSIRFEDCTSERTVLRYMTDGMLLREFLSEPDLASYSVVMVDEAHERTLHTDILFGLIKDVARFRPELKVLVASATMDTARFSTFFDDAPVFRIPGRRFPVDIFYTKAPEADYLEACVVSVLQIHVTQPPGDILVFLTGQEEIEAACEMLQDRCRRLGSKIRELLVLPIYANLPSDMQARIFQPTPPGARKVVVATNIAETSLTIEGIIYVLDPGFCKQKSYNPRTGMESLTVTPCSKASANQRAGRAGRVAAGKCFRLYTAWAYQHELEETTVPEIQRTSLGNVVLLLKSLGIHDLMHFDFLDPPPYETLLLALEQLYALGALNHLGELTTSGRKMAELPVDPMLSKMILASEKYSCSEEILTVAAMLSVNNSIFYRPKDKVVHADNARVNFFLPGGDHLVLLNVYTQWAESGYSSQWCYENFVQFRSMRRARDVREQLEGLLERVEVGLSSCQGDYIRVRKAITAGYFYHTARLTRSGYRTVKQQQTVFIHPNSSLFEQQPRWLLYHELVLTTKEFMRQVLEIESSWLLEVAPHYYKAKELEDPHAKKMPKKIGKTREELG

The binders below were run against FTO, N-terminal BirA* fusion (human) (UniProt Q9C0B1) (assay: proximity labelling; BioID: BirA*-fused bait induced with 200 ng/ml dox in stable 293T cells, 50 μM biotin for 24 h, streptavidin bead purification of biotinylated proteins, LC-MS/MS; hits filtered by Limma (>4-fold, adjusted P < 0.01) and SAINT (score >0.74) against BirA* and NLS-BirA* controls).

binding, binds:
B1
B2
B3
B4
B5

Results are given in words; binding and its absence hold for the method and conditions named. In cells and extracts the contact can be indirect. Here binding means that the protein was enriched with, or labelled near, the bait; the list need not be complete.
